Test results: patent publication US20130045891A1
These are yes or no findings as the source states them, for the method shown. Some entries that bind do so weakly or less than the wild type.

What was measured:
[1] = biological target: P. alba isoprene synthase MEA G491S (+)TEV, from pDW100, expressed in strain DW398 (Populus alba) (UniProt Q50L36); assay: X-ray crystal structure, 2.6 Å
[2] = biological target: P. alba isoprene synthase MEA G491S (+)TEV, from pDW100, expressed in strain DW398 (Populus alba) (UniProt Q50L36); assay: X-ray crystal structure
[3] = biological target: P. alba isoprene synthase MEA G491S (+)TEV, from pDW100, expressed in strain DW398 (Populus alba) (UniProt Q50L36); assay: X-ray crystallography, 2.6 Å, molecular replacement

Measured: binding

B1: P. alba isoprene synthase MEA G491S (+)TEV, from pDW100, expressed in strain DW398 (enzyme)
chain: MEARRSANYEPNSWDYDYLLSSDTDESIEVYKDKAKKLEAEVRREINNEKAEFLTLLELIDNVQRLGLGYRFESDIRGALDRFVSSGGFDAVTKTSLHGTALSFRLLRQHGFEVSQEAFSGFKDQNGNFLENLKEDIKAILSLYEASFLALEGENILDEAKVFAISHLKELSEEKIGKELAEQVNHALELPLHRRTQRLEAVWSIEAYRKKEDANQVLLELAILDYNMIQSVYQRDLRETSRWWRRVGLATKLHFARDRLIESFYWAVGVAFEPQYSDCRNSVAKMFSFVTIIDDIYDVYGTLDELELFTDAVERWDVNAINDLPDYMKLCFLALYNTINEIAYDNLKDKGENILPYLTKAWADLCNAFLQEAKWLYNKSTPTFDDYFGNAWKSSSGPLQLVFAYFAVVQNIKKEEIENLQKYHDTISRPSHIFRLCNDLASASAEIARGETANSVSCYMRTKGISEELATESVMNLIDETWKKMNKEKLSGSLFAKPFVETAINLARQSHCTYHNGDAHTSPDELTRKRVLSVITEPILPFERENLYFQ
binds: [1] | [2] | [3]
